Assays:
[1] = target: αSOs-Alexa488 binding to DOPG liposomes (Homo sapiens, UniProt P37840); assay: FIDA αSO-vesicle binding inhibition assay; conditions: 5 μM compound, 50 μM DOPG; αSO-vesicle complex without compound ∼60 nm
αSOs-Alexa488 = αSOs-Alexa488 (Homo sapiens, UniProt P37840); assay: FIDA effect of lead compounds on free αSOs; assay type: binding; conditions: 150 nM αSO, 5 μM compound; 13% without compound
αSO = αSO (Homo sapiens, UniProt P37840); assay type: binding; conditions: 2 mM compound, 1 μg mL^−1 αSOs

## CC(C)(C)CC(C)(C)c1ccc(OCCOCC[N+](C)(C)Cc2ccccc2)cc1 [A3, Benzethonium]
[1]
  Apparent size (Rh) of αSOs-Alexa488 in the presence of DOPG liposomes and compound: ~10 nm
αSOs-Alexa488
  Percentage of α-syn monomers in αSO sample: 18%
αSO
  αSO binding signal in sandwich ELISA vs positive control: to a smaller extent

From article PMC10016340 (Chemical Science, 2023)
